Reference: patent JP2016106147A
Results are given in words; binding and its absence hold for the method and conditions named. Some entries that bind do so weakly or less than the wild type.

Chains of the proteins cited; added tags and fusions are not shown. Residues count along the entry.
UniProt P50282, residues 20-708: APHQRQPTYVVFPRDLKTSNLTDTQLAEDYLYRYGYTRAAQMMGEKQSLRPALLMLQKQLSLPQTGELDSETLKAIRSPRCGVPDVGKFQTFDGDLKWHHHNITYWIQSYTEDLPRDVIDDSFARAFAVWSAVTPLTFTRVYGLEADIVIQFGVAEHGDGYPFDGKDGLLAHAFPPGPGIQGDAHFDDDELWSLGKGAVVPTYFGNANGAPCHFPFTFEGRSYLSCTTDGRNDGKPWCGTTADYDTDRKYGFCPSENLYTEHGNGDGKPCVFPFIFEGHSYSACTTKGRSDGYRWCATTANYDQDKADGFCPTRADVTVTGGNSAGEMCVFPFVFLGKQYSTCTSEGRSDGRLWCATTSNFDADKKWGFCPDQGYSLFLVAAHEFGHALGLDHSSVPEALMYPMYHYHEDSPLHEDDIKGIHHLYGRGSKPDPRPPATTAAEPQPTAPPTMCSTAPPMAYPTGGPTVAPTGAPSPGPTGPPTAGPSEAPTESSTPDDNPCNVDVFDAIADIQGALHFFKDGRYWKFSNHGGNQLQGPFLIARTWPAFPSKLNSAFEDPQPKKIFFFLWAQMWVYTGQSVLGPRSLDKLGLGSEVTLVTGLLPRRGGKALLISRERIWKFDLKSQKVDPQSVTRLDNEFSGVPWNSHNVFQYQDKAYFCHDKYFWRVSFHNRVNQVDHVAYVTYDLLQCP

Experiments:
[1] = molecular target: カニクイザルMMP9 (cynomolgus monkey); assay: binding test (Table 2, not shown)
[2] = molecular target: ラットMMP9 (rat) (UniProt P50282); assay: binding test (Table 2, not shown)

B1: マウスモノクローナル抗MMP9抗体(AB0041) (antibody, mouse IgG2b, V domains shown)
VH: QVQLKESGPGLVAPSQSLSITCTVSGFSLLSYGVHWVRQPPGKGLEWLGVIWTGGTTNYNSALMSRLSISKDDSKSQVFLKMNSLQTDDTAIYYCARYYYGMDYWGQGTSVTVSS
VL: DIVMTQSHKFMSTSVGDRVSITCKASQDVRNTVAWYQQKTGQSPKLLIYSSSYRNTGVPDRFTGSGSGTDFTFTISSVQAEDLAVYFCQQHYITPYTFGGGTKLEIK
binding [1]: binds
binding [2]: binds
